The text below walks through data of ChEMBL document CHEMBL1140325, “Discovery of high-affinity ligands of sigma1 receptor, ERG2, and emopamil binding protein by pharmacophore modeling and virtual screening” (J Med Chem, 2005).

Amino acid sequences for entries named in this document (tags omitted). A change or cut given only in a name is not applied to a line headed by its entry.
UniProt P32352: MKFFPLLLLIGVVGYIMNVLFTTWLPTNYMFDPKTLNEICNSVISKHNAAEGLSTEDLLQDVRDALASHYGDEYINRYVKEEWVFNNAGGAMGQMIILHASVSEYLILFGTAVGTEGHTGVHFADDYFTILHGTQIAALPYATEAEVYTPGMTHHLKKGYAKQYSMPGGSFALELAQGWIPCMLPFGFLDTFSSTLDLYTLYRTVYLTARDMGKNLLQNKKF

The target of the test is C-8 sterol isomerase ERG2 (Saccharomyces cerevisiae S288c, UniProt P32352). Kind of test: Affinity for ERG2 of Saccharomyces cerevisiae using [3H]ifenprodil or (+)-[3H]pentazocine radioligand.

Structures are written as SMILES.

Consider `CCCCc1oc2ccccc2c1C(=O)c1cc(I)c(OCCN(CC)CC)c(I)c1` [AMIODARONE], for which the inhibition constant Ki was 62 nM.

The Ki is a dissociation constant, usually derived from enzyme kinetics or from competition with a known ligand.
